# Experimental data: publication PMC11488288
# Results are given in words; binding and its absence hold for the method and conditions named. In cells and extracts the contact can be indirect. Some entries that bind do so weakly or less than the wild type.
# T1: OGT (UniProt Q8CGY8)
# T1 sequence: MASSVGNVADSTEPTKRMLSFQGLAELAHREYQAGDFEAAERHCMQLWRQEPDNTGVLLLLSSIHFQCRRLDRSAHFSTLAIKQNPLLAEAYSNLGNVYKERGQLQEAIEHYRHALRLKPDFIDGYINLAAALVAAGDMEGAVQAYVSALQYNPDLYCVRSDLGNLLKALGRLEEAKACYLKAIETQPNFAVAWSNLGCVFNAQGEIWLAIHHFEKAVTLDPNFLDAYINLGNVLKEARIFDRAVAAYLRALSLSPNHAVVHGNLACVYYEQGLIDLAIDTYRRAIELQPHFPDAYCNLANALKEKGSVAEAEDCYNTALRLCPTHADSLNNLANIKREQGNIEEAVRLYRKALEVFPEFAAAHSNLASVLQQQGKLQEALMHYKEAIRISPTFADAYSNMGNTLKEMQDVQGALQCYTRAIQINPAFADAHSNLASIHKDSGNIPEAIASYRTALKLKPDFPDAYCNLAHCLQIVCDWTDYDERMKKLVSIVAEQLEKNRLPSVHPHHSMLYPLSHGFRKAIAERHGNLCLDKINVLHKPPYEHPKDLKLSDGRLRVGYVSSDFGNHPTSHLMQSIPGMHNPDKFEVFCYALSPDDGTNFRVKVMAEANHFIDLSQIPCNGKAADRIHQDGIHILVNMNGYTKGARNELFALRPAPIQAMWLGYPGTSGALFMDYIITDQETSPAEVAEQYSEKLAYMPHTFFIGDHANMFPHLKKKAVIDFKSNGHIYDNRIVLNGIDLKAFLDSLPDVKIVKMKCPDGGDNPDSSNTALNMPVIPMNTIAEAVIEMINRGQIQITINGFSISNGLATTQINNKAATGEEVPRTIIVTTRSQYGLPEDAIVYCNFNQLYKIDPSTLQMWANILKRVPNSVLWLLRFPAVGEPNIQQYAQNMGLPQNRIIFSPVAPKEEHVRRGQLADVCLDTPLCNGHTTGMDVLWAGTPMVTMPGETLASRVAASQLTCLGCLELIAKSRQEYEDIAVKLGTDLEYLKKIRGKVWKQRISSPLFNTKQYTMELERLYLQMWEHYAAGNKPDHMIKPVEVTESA
# B1: YTHDF2 (protein, UniProt Q91YT7 1-579)
# chain: MSASSLLEQRPKGQGNKVQNGSVHQKDGLNDDDFEPYLSPQARPNNAYTAMSDSYLPSYYSPSIGFSYSLGEAAWSTGGDTAMPYLTSYGQLSNGEPHFLPDAMFGQPGALGSTPFLGQHGFNFFPSGIDFSAWGNNSSQGQSTQSSGYSSNYAYAPSSLGGAMIDGQSAFANETLNKAPGMNTIDQGMAALKLGSTEVASSVPKVVGSAVGSGSITSNIVASSSLPPATIAPPKPASWADIASKPAKQQPKLKTKNGIAGSSLPPPPIKHNMDIGTWDNKGPVAKAPSQALVQNIGQPTQGSPQPVGQQANNSPPVAQASVGQQTQPLPPPPPQPAQLSVQQQAAQPTRWVAPRNRGSGFGHNGVDGNGVGQSQAGSGSTPSEPHPVLEKLRSINNYNPKDFDWNLKHGRVFIIKSYSEDDIHRSIKYNIWCSTEHGNKRLDAAYRSMNGKGPVYLLFSVNGSGHFCGVAEMKSAVDYNTCAGVWSQDKWKGRFDVRWIFVKDVPNSQLRHIRLENNENKPVTNSRDTQEVPLEKAKQVLKIIASYKHTTSIFDDFSHYEKRQEEEESVKKERQGRGK
# Target: T1, OGT
# Assay: co-IP; cells co-transfected with full-length OGT and YTHDF2 labeled with HA or Flag tags; lysate incubated with anti-HA antibody overnight at 4 °C, then Protein A/G Sepharose beads for 4 h; immunoblotting
binder,measurement,value
B1,binding,binds
